We go through 3 molecules from paper PMC10158545.

Protein sequences, listed by entry. Tags and fused reporters are not part of them. Residues count along the entry.
UniProt Q9NZQ7, residues 19-290: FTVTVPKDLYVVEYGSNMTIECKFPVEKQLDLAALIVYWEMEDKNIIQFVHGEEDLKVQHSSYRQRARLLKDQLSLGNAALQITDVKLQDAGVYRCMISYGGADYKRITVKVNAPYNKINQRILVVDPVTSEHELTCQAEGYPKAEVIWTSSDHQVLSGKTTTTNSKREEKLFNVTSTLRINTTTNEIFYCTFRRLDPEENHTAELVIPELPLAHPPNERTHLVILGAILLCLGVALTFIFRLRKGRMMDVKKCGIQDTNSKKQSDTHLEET

These are yes or no findings as the source states them, for the method shown. Binding seen in cells or lysates may run through a third protein. Some entries that bind do so weakly or less than the wild type. For part of these data: Tags and fused reporters may be left off the sequences shown.

The target of assay [1] is T1, Flag-tagged FLOT1 (FLOT1-3Flag) (human) (UniProt O75955).
T1 sequence: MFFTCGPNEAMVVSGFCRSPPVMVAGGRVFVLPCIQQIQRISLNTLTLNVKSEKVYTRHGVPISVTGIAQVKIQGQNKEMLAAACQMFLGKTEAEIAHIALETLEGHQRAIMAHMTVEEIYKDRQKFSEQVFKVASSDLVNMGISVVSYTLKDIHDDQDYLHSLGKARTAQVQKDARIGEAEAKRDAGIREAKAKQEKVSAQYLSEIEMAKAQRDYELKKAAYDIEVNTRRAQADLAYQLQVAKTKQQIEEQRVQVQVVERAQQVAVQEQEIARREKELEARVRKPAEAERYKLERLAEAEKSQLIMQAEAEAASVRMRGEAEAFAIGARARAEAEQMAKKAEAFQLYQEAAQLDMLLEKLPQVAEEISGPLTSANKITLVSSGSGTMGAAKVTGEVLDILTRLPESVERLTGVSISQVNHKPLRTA
The assay can be described thus: co-IP; HEK293T co-transfected with Flag-FLOT1 and HA-PD-L1 (or vector), lysates 48 h after transfection; anti-Flag or anti-HA magnetic beads at 4°C overnight, washed with PBST (0.1% Triton X-100); immunoblot with anti-HA or anti-Flag. (In general: In western blotting, separated proteins are transferred to a membrane and probed.)

The target in assay [2] is programmed death-ligand 1 (PD-L1), endogenous (human (endogenous in A549 and A549/X)) (UniProt Q9NZQ7). The assay can be described thus: co-IP; endogenous proteins; A549 and radioresistant A549/X cells lysed in 20 mM Tris pH 7.5, 150 mM NaCl, 1% Triton X-100, 1 mM EDTA; primary antibody overnight at 4°C, protein A/G agarose; immunoblot.
In assay [3] the target is HA-tagged PD-L1 (PD-L1-3 HA) (UniProt Q9NZQ7). The assay can be described thus: co-IP; HEK293T co-transfected with Flag-FLOT1 and HA-PD-L1 (or vector), lysates 48 h after transfection; anti-Flag or anti-HA magnetic beads at 4°C overnight, washed with PBST (0.1% Triton X-100); immunoblot with anti-HA or anti-Flag.

Consider “HA-tagged PD-L1 (PD-L1-3 HA) (from UniProt Q9NZQ7 19-290)”, for which, in assay [1], the binding entry is “binds”.

B1: flotillin-1 (FLOT1), endogenous (protein, UniProt O75955 1-427)
chain: MFFTCGPNEAMVVSGFCRSPPVMVAGGRVFVLPCIQQIQRISLNTLTLNVKSEKVYTRHGVPISVTGIAQVKIQGQNKEMLAAACQMFLGKTEAEIAHIALETLEGHQRAIMAHMTVEEIYKDRQKFSEQVFKVASSDLVNMGISVVSYTLKDIHDDQDYLHSLGKARTAQVQKDARIGEAEAKRDAGIREAKAKQEKVSAQYLSEIEMAKAQRDYELKKAAYDIEVNTRRAQADLAYQLQVAKTKQQIEEQRVQVQVVERAQQVAVQEQEIARREKELEARVRKPAEAERYKLERLAEAEKSQLIMQAEAEAASVRMRGEAEAFAIGARARAEAEQMAKKAEAFQLYQEAAQLDMLLEKLPQVAEEISGPLTSANKITLVSSGSGTMGAAKVTGEVLDILTRLPESVERLTGVSISQVNHKPLRTA
Consider B1, for which, in assay [2], the binding result is “binds”.

B2: Flag-tagged FLOT1 (FLOT1-3Flag) (protein, UniProt O75955 1-427)
chain: MFFTCGPNEAMVVSGFCRSPPVMVAGGRVFVLPCIQQIQRISLNTLTLNVKSEKVYTRHGVPISVTGIAQVKIQGQNKEMLAAACQMFLGKTEAEIAHIALETLEGHQRAIMAHMTVEEIYKDRQKFSEQVFKVASSDLVNMGISVVSYTLKDIHDDQDYLHSLGKARTAQVQKDARIGEAEAKRDAGIREAKAKQEKVSAQYLSEIEMAKAQRDYELKKAAYDIEVNTRRAQADLAYQLQVAKTKQQIEEQRVQVQVVERAQQVAVQEQEIARREKELEARVRKPAEAERYKLERLAEAEKSQLIMQAEAEAASVRMRGEAEAFAIGARARAEAEQMAKKAEAFQLYQEAAQLDMLLEKLPQVAEEISGPLTSANKITLVSSGSGTMGAAKVTGEVLDILTRLPESVERLTGVSISQVNHKPLRTA
As for B2, the binding entry in assay [3] is given as “binds”.
